# Measured values taken from PMC3206016, “Putting into Practice Domain-Linear Motif Interaction Predictions for Exploration of Protein Networks” (PLoS ONE, 2011).
# Sequences of proteins named here, by UniProt entry; tags and fusion partners are left off. Residues count along the entry.
# MAGI1-2/6 (MBP fusion of the second of the six PDZ domains of MAGI1) (Q6RHR9, residues 448-572): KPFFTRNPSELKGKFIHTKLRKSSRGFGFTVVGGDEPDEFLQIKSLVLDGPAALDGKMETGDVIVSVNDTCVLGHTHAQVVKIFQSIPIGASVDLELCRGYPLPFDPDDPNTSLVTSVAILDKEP
# MAGI1-3/6 (MBP fusion of the third of the six PDZ domains of MAGI1) (Q6RHR9, residues 613-752): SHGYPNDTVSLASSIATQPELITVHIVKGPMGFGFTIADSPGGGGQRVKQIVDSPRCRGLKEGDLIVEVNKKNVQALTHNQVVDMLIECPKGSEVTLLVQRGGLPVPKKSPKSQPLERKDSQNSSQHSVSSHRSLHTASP
# SCRIB-34/4 (MBP fusion of the tandem of the third and fourth PDZ domains of SCRIB) (Q14160, residues 997-1193): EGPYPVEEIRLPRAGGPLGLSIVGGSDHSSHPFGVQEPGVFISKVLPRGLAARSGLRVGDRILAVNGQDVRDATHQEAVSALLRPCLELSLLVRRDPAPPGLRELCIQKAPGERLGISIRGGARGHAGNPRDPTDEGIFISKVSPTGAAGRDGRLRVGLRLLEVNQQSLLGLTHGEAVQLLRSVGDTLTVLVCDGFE
# SCRIB-4/4 (MBP fusion of the fourth of the four PDZ domains of SCRIB) (Q14160, residues 1097-1193): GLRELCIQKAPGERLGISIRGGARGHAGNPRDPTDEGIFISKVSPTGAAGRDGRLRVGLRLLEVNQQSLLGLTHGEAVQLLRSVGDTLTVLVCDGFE
# No constants are given. Whether binding was seen depends on the method and setting. Some binding calls cover weakened binding; strength is not graded here.
# How the values were obtained:
# [1] = target: T1, VANG2_05 (short peptide of Vang-like protein 2: GSGAG and the last five residues) (human); assay: SPR; both purified
# T1 sequence (peptide, biotin at N-terminus): GSGAGSETSV
# [2] = target: T2, TAX1_10 (long peptide of the Trans-activating transcriptional regulatory protein of HTLV-1: the last ten residues) (HTLV-1A); assay: SPR; both purified
# T2 sequence (peptide, biotin at N-terminus): SEKHFRETEV
substance,measurement,setting,value
MAGI1-2/6 (MBP fusion of the second of the six PDZ domains of MAGI1) (from UniProt Q6RHR9-1 448-572) (domain or fragment),binding,[1],no binding (tested: 10 µM (analyte injected up to 30 µM))
MAGI1-3/6 (MBP fusion of the third of the six PDZ domains of MAGI1) (from UniProt Q6RHR9-1 613-752) (domain or fragment),binding,[1],no binding (tested: 10 µM (analyte injected up to 30 µM))
SCRIB-4/4 (MBP fusion of the fourth of the four PDZ domains of SCRIB) (from UniProt Q14160-1 1097-1193) (domain or fragment),binding,[1],no binding (tested: 10 µM (analyte injected up to 30 µM))
SCRIB-34/4 (MBP fusion of the tandem of the third and fourth PDZ domains of SCRIB) (from UniProt Q14160-1 997-1193) (domain or fragment),binding,[2],binds
